Residue numbers refer to the chain shown, from its start. Only a part is listed here, and it is no random draw. The calls were merged from several studies; some rest on single wells. The list shows a part of the results.
Key:
Details in all cases: stereoisomer not certain
[1] = target: T1, OR8D1 (Homo sapiens) (UniProt Q8WZ84)
T1 sequence (whole entry): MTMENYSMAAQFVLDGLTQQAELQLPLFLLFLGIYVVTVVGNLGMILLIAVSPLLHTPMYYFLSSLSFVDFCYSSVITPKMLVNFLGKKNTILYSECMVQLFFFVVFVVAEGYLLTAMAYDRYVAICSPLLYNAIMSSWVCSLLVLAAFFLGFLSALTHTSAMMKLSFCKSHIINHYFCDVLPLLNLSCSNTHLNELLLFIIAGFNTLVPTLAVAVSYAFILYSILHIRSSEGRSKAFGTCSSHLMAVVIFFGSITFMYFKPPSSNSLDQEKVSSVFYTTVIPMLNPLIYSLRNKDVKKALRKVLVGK
Summary of the method: (§1)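 Transient luciferase assays in mammalian cell lines were common, though methods varied by source. The values come from published papers and their supplementary material, with extra details from the original authors when needed. Responsive refers to a measured signal the original authors judged statistically different from baseline, and non-responsive (inactive) to the remainder.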

Chains of the proteins cited; added tags and fusions are not shown. Chains listed by the source or under a name are the forms on record and can include a tag or linker.
OR8B4, as listed by the source: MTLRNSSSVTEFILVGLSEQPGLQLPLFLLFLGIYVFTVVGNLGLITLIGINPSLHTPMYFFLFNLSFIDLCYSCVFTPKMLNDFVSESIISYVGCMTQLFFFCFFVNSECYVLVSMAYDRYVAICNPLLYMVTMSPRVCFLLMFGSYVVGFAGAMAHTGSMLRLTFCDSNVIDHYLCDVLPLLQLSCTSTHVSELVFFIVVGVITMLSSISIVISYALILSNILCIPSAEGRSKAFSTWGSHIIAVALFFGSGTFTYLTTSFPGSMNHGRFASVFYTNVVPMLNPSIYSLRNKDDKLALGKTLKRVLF

[2] = test system: T2, OR8B3
T2 sequence (whole entry): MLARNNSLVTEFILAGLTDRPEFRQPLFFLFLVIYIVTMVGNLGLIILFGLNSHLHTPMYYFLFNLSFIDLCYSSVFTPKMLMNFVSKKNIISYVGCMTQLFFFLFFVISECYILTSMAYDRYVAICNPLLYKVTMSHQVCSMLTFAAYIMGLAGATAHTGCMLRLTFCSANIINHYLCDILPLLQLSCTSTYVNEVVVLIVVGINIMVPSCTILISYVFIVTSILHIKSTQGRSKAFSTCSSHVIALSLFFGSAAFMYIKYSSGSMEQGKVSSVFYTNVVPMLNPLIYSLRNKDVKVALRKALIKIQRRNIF
Summary of the method: as §1

[3] = test system: T3, OR8B4
T3 sequence (whole entry): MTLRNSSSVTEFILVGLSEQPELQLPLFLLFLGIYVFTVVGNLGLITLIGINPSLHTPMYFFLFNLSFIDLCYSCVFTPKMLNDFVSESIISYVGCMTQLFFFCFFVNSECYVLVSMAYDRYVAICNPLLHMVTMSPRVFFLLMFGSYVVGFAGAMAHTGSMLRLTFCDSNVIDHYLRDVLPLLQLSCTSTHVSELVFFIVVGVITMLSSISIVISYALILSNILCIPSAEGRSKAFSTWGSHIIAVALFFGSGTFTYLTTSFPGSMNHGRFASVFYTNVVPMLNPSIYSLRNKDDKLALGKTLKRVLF
Summary of the method: as §1

[4] = test system: T4, OR8B4; remark: listed apart in the source
T4 sequence (whole entry): T3 sequence (whole entry) with E22G, H131Y, F140C, R178C
Summary of the method: as §1

[5] = target: T5, OR8B8 (Homo sapiens) (UniProt Q15620)
T5 sequence (whole entry): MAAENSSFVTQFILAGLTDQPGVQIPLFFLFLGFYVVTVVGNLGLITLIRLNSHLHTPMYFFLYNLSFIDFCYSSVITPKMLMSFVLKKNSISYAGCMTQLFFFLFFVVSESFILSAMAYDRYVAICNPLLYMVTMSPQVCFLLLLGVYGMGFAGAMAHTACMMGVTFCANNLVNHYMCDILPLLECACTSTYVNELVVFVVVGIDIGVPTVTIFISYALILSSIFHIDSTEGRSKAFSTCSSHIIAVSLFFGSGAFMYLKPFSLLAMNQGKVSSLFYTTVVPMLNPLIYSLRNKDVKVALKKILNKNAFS
Summary of the method: as §1

[6] = test system: T6, OR8B8
T6 sequence (whole entry): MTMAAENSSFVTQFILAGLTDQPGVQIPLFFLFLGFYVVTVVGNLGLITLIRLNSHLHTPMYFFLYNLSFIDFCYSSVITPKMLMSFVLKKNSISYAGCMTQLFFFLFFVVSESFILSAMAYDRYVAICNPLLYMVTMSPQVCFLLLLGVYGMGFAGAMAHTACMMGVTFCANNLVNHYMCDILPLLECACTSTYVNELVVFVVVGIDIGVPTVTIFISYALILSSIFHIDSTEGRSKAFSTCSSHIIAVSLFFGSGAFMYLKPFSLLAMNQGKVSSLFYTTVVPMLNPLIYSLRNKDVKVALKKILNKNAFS
Summary of the method: as §1

[7] = target: T7, OR8D2 (Homo sapiens) (UniProt Q9GZM6)
T7 sequence (whole entry): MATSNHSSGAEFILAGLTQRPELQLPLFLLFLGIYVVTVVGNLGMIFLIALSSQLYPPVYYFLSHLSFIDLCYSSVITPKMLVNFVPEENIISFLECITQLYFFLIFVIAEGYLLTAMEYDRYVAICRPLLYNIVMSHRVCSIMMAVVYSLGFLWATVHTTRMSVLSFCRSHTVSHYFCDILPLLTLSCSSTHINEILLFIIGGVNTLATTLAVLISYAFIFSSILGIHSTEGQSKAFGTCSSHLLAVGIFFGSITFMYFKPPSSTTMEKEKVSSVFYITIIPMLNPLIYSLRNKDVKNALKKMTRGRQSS
Summary of the method: as §1

[8] = test system: T8, OR8D4
T8 sequence (whole entry): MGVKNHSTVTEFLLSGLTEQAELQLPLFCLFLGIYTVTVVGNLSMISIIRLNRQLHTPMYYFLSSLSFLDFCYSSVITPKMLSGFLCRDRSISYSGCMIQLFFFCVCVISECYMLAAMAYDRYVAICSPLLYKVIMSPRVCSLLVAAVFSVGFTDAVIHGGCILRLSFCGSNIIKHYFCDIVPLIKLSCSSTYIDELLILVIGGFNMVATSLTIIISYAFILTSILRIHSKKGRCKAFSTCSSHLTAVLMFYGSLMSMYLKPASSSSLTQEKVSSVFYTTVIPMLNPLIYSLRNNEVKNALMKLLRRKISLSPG
Summary of the method: as §1

[9] = target: T9, OR8G1 (Homo sapiens) (UniProt Q15617)
T9 sequence (whole entry): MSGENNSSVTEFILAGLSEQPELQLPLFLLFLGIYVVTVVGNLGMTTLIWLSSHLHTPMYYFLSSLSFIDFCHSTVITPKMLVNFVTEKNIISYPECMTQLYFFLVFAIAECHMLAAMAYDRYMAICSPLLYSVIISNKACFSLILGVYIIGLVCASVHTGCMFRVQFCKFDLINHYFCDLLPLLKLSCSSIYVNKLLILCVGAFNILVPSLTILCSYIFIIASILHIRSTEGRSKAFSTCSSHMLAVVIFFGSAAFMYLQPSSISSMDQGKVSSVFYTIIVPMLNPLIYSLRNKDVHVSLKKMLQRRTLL
Summary of the method: as §1

[10] = target: T10, OR8G5 (Homo sapiens) (UniProt Q8NG78)
T10 sequence (whole entry): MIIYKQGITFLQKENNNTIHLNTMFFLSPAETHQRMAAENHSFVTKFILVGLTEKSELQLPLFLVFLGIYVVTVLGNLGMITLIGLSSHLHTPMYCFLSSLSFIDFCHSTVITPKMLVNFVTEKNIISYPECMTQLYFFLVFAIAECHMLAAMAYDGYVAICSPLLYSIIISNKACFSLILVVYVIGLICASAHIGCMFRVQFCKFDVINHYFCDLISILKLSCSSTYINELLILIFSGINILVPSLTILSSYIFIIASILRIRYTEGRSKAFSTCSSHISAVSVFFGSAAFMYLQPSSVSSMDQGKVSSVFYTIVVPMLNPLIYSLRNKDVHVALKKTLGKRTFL
Summary of the method: as §1

[11] = test system: T11, OR8G5
T11 sequence (whole entry): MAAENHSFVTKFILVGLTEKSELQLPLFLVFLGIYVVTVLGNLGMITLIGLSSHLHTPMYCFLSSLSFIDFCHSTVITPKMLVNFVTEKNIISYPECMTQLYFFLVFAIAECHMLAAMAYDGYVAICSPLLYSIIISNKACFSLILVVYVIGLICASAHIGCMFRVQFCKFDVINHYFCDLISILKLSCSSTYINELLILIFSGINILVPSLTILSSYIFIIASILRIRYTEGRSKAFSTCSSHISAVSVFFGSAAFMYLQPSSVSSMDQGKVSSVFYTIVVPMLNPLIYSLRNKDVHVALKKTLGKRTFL
Summary of the method: as §1

[12] = target: T12, OR8H1 (Homo sapiens) (UniProt Q8NGG4)
T12 sequence (whole entry): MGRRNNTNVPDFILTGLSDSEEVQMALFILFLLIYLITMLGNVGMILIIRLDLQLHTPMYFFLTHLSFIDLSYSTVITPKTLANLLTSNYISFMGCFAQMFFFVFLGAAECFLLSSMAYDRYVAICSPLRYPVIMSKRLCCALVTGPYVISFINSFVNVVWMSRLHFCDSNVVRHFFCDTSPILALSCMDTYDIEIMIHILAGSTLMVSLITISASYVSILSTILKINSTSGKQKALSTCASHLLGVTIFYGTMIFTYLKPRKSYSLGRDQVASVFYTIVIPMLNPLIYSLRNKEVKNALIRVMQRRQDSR
Summary of the method: as §1

[13] = test system: T13, OR8H2
T13 sequence (whole entry): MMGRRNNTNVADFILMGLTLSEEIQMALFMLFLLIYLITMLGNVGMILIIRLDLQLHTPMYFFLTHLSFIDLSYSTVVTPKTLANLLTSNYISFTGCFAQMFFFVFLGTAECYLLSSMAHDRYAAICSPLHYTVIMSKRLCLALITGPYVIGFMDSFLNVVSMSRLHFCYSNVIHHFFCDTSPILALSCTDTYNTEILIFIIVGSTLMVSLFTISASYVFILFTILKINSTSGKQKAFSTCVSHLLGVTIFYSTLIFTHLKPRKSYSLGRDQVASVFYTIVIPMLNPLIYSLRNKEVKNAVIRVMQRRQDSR
Summary of the method: as §1

[14] = test system: T14, OR8H3
T14 sequence (whole entry): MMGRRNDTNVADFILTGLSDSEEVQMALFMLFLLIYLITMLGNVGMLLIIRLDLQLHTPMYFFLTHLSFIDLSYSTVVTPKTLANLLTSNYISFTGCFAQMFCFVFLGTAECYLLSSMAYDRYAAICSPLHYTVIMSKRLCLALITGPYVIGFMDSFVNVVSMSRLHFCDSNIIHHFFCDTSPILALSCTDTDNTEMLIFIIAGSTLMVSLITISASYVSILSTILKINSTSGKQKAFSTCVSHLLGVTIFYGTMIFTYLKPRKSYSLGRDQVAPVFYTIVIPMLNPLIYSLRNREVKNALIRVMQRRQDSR
Summary of the method: as §1

[15] = test system: T15, OR8I2
T15 sequence (whole entry): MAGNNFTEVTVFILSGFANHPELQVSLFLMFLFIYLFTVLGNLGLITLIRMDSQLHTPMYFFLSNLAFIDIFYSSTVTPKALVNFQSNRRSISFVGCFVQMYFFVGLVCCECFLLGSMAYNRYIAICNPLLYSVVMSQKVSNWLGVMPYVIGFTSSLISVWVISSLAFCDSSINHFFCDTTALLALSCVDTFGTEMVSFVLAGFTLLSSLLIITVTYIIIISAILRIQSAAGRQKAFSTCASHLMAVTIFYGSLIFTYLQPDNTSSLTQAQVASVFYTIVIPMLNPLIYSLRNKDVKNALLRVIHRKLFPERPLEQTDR
Summary of the method: as §1

[16] = test system: T16, OR8J1
T16 sequence (whole entry): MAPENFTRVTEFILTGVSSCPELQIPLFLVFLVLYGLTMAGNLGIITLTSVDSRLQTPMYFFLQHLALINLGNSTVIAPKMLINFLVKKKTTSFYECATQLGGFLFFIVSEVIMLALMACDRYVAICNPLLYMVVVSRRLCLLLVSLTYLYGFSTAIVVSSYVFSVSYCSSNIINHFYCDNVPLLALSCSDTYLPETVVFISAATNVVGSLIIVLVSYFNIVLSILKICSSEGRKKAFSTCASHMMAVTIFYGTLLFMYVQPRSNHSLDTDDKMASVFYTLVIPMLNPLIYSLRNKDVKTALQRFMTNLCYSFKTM
Summary of the method: as §1

[17] = target: T17, OR8J3 (Homo sapiens) (UniProt Q8NGG0)
T17 sequence (whole entry): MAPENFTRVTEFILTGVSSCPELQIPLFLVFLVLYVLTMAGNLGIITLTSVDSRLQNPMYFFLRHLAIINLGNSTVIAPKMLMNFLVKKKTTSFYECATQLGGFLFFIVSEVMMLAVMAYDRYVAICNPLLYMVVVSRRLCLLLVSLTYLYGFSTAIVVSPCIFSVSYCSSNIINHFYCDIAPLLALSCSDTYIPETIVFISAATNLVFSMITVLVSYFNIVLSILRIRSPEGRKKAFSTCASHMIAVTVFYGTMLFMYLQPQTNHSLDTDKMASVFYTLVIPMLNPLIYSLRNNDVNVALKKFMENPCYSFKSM
Summary of the method: as §1

[18] = target: T18, OR8K1 (Homo sapiens) (UniProt Q8NGG5)
T18 sequence (whole entry): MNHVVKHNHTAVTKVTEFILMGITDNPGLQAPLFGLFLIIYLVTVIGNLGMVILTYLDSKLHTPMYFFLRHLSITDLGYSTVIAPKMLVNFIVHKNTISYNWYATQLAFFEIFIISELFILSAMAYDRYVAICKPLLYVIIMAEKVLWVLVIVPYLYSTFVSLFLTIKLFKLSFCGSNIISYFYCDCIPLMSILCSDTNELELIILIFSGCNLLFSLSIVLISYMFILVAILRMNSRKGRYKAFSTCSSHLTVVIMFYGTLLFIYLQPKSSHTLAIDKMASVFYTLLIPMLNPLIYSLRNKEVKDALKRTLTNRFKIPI
Summary of the method: as §1

[19] = test system: T19, OR8K3
T19 sequence (whole entry): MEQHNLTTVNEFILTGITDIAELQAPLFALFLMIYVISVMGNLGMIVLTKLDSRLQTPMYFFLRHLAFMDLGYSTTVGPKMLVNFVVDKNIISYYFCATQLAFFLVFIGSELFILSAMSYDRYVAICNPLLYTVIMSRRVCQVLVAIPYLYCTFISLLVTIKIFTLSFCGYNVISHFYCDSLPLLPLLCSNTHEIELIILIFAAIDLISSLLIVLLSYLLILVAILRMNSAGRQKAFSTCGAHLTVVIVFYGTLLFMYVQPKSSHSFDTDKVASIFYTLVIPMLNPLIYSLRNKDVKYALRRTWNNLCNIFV
Summary of the method: as §1

[20] = test system: T20, OR8K5
T20 sequence (whole entry): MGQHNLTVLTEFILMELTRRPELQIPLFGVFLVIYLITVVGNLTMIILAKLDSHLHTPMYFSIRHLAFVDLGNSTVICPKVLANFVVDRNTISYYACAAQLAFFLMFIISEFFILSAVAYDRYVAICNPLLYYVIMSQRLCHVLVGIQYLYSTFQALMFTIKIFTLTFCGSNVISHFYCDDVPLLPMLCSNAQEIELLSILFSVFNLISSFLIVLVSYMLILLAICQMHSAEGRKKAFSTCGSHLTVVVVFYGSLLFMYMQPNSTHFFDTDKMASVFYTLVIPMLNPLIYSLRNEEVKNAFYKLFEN
Summary of the method: as §1

Measured: odorant receptor agonist call;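 further: active if original authors judged signal statistically different from baseline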

CCOc1cc(C=O)ccc1O
inactive: [1]

CS
inactive: all assays above

Source: the M2OR odorant receptor database
